Experimental data from the supplement of paper PMC12819154, “High-throughput peptide-centric local stability assay extends protein–ligand identification to membrane proteins, tissues and bacteria” (Nature Structural & Molecular Biology, 2025).
Some of the results follow. Most values lie at the level of the controls, where differences are scatter.

Amino acid sequences for entries named in this document (tags omitted). A change or cut given only in a name is not applied to a line headed by its entry.
UniProt Q9H2P0: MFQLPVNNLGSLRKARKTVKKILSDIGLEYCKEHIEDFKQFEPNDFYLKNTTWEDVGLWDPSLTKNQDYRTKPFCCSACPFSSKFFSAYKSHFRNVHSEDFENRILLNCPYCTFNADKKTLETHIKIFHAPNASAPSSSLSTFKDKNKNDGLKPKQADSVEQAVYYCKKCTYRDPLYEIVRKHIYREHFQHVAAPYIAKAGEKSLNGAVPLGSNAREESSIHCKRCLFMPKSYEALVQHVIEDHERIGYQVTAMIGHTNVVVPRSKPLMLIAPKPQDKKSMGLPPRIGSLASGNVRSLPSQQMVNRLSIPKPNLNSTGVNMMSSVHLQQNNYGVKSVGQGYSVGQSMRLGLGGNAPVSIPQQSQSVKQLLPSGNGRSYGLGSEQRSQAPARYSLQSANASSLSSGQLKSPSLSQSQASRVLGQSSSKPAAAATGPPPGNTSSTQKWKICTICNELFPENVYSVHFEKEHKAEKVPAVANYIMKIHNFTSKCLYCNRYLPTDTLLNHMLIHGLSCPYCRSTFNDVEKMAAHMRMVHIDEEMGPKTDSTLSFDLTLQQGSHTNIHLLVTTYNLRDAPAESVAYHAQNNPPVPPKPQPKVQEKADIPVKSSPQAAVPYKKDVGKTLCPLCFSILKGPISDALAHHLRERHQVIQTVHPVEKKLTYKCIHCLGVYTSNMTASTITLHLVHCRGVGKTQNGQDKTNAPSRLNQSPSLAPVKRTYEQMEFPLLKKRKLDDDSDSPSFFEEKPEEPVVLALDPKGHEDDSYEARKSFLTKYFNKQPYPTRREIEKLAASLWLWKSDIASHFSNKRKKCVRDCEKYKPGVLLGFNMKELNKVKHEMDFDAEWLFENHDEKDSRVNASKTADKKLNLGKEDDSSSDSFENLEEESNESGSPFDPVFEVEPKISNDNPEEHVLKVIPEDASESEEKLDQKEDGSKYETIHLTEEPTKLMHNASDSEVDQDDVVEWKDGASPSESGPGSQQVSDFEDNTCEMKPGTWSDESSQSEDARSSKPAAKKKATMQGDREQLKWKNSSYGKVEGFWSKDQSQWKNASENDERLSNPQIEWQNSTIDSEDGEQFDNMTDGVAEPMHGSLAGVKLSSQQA
UniProt Q9H2D6: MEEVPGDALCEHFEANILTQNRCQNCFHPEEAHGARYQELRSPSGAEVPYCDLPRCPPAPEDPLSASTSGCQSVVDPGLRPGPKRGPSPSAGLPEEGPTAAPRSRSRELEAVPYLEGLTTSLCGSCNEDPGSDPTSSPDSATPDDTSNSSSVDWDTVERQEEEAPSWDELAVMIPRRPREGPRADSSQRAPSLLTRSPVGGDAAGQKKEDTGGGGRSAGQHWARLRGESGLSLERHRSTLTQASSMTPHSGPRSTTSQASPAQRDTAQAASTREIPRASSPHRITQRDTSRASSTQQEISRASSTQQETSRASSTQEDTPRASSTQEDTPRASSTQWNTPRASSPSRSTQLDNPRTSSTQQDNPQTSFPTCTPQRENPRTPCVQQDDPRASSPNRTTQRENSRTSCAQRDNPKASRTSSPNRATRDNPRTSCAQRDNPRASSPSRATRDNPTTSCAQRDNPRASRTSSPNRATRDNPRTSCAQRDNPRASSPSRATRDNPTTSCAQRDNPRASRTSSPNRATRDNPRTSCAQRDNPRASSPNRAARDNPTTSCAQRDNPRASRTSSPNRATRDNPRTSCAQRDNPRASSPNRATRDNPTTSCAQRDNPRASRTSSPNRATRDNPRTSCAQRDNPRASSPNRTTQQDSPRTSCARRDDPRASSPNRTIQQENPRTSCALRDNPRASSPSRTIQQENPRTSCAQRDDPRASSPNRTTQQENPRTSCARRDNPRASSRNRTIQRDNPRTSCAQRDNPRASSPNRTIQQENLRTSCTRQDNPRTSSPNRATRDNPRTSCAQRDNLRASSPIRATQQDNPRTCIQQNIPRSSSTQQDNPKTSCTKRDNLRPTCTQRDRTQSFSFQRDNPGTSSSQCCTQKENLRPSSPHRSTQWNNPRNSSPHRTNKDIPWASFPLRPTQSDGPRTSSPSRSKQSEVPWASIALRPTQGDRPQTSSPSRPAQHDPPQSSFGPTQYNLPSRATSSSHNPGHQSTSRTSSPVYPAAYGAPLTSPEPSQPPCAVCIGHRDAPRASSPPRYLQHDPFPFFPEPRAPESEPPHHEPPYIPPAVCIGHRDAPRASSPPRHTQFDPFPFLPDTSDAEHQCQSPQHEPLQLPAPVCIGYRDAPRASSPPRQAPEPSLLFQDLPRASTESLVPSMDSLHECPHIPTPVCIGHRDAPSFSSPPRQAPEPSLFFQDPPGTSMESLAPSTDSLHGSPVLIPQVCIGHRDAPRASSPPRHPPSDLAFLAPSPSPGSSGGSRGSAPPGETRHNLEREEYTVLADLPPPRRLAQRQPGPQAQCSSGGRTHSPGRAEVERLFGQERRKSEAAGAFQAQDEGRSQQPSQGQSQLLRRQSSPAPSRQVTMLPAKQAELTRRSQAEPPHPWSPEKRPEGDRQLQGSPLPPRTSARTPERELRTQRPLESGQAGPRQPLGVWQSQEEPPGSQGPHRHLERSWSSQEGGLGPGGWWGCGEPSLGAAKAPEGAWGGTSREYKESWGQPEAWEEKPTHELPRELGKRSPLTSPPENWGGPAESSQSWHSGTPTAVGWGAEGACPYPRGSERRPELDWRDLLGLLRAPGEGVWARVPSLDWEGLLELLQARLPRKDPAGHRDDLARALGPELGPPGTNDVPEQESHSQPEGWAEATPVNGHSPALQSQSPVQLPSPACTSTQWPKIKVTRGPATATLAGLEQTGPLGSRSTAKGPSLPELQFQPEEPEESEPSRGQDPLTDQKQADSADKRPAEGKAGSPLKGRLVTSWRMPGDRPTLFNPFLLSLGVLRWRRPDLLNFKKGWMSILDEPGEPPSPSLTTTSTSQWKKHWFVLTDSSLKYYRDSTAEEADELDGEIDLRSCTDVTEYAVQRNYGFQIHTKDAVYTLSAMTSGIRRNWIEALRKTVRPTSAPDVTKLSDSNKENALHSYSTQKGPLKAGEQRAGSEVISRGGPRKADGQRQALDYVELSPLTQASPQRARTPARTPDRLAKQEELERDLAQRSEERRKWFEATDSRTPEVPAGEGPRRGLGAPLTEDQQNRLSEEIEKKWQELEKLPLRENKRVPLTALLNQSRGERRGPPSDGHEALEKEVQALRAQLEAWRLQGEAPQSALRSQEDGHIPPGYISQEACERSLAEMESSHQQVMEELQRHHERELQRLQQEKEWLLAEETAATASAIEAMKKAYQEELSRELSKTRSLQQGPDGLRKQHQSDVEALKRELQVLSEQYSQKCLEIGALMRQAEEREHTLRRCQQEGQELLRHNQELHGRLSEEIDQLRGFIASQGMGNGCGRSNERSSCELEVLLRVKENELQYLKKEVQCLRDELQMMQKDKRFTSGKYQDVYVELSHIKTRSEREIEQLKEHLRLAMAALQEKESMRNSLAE
UniProt Q9H2G2: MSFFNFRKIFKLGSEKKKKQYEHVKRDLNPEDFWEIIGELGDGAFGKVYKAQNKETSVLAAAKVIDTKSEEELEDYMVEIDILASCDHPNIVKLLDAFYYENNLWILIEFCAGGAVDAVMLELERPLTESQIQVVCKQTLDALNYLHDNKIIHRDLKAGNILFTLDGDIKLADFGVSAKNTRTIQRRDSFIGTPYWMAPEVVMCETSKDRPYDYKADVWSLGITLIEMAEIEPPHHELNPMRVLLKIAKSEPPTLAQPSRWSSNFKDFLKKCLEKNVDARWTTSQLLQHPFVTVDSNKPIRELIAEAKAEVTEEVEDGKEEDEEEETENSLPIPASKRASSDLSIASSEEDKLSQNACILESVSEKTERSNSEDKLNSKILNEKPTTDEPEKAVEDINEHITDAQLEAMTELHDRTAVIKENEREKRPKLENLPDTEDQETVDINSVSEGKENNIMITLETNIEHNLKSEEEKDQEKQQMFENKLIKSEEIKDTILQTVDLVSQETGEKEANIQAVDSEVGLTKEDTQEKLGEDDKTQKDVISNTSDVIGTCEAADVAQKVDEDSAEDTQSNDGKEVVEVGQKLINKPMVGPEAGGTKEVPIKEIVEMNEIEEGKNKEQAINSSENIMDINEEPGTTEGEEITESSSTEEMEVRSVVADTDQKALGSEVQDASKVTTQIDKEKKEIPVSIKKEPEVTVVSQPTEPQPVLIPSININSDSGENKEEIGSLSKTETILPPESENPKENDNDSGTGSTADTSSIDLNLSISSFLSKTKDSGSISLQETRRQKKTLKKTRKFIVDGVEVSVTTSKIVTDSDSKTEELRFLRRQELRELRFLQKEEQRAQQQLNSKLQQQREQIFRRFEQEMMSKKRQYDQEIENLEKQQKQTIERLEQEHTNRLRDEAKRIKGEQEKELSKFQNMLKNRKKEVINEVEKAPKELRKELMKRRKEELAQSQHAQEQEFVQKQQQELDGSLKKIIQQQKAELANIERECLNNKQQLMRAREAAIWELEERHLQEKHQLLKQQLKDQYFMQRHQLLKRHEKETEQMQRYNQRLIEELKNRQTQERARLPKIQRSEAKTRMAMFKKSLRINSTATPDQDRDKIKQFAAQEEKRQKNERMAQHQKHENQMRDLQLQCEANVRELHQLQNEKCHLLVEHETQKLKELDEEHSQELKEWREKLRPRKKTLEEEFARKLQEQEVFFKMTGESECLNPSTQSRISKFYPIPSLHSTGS
UniProt Q9H6H4: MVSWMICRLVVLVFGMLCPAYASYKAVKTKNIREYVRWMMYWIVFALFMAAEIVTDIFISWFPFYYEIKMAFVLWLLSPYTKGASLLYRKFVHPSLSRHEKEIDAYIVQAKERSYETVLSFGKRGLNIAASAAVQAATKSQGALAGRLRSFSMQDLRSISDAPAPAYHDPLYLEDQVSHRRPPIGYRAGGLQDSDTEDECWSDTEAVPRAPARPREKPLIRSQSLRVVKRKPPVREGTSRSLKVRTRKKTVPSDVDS
UniProt Q9H1M0: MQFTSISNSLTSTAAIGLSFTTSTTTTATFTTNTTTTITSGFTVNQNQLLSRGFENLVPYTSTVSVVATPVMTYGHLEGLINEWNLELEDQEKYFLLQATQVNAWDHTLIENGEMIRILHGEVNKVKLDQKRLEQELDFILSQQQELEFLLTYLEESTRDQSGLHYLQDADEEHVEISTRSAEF
UniProt Q9H7B2: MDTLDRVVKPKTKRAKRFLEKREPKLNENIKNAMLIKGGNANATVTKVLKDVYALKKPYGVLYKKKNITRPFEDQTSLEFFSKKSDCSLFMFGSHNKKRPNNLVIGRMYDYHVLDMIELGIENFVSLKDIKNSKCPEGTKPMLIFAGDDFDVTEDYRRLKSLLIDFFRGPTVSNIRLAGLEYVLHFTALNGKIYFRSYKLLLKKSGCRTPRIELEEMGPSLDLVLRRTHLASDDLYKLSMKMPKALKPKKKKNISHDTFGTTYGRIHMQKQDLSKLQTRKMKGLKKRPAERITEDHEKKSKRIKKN
UniProt Q9H5K3: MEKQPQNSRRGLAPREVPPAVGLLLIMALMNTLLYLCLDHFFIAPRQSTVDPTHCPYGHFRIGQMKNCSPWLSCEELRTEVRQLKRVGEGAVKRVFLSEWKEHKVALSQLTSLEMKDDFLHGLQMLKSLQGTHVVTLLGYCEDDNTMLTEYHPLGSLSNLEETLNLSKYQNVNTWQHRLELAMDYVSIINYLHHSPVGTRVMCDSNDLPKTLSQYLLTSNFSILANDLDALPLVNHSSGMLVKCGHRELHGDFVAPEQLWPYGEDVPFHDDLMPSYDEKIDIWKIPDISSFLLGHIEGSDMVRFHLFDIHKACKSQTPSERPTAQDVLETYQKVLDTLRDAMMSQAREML
UniProt Q9HBL8: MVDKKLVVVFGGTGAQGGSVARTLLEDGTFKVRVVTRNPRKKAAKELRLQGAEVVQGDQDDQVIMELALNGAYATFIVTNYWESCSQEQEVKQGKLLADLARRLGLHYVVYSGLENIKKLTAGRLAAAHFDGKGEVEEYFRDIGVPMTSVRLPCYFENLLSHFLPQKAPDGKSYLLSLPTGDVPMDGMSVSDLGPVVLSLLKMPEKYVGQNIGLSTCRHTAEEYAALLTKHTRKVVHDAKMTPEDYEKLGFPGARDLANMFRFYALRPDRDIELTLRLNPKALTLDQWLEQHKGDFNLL
UniProt Q9HB40: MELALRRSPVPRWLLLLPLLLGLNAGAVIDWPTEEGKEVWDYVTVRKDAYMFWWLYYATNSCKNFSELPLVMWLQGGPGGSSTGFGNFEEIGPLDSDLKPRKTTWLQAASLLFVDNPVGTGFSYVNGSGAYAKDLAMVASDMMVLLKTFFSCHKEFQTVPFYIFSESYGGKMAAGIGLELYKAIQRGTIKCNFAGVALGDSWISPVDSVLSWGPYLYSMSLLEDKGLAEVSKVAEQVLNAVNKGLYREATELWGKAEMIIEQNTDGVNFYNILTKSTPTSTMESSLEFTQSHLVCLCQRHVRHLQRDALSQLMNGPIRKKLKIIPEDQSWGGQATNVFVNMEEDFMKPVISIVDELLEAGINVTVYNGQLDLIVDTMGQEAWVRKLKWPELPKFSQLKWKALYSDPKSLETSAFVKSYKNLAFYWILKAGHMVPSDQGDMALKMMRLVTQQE

compound: Cc1nc(Nc2ncc(C(=O)Nc3c(C)cccc3Cl)s2)cc(N2CCN(CCO)CC2)n1 [dasatinib]; test: log2 fold change of tryptic peptide abundance, ligand vs vehicle (limited proteolysis) (log2 ratio); higher = more trypsin-susceptible (destabilized); conditions: ligand concentration: 5 uM; sample: K562 cleared lysate

Row | Target | log2 fold change
1 | VPS16 (peptide sequence: DLYNQDDNHQELGSFHIR, peptide start residue: 618) (UniProt Q9H269) | 0.426
2 | ADNP (peptide sequence: SLNGAVPLGSNAR, peptide start residue: 204) (UniProt Q9H2P0) | 0.111
3 | TRIOBP (peptide sequence: LSEEIDQLR, peptide start residue: 2251) (UniProt Q9H2D6) | 0.212
4 | SLK (peptide sequence: QTLDALNYLHDNK, peptide start residue: 138) (UniProt Q9H2G2) | -0.219
5 | REEP4 (peptide sequence: RGLNIAASAAVQAATK, peptide start residue: 124) (UniProt Q9H6H4) | -0.52
6 | UniProt Q9H1M0 (peptide sequence: DQSGLHYLQDADEEHVEISTR, peptide start residue: 160) | 0.576
7 | UniProt Q9H7B2 (peptide sequence: KPYGVLYK, peptide start residue: 57) | 0.258
8 | UniProt Q9H5K3 (peptide sequence: VGEGAVK, peptide start residue: 87) | -0.207
9 | NMRAL1 (peptide sequence: MTPEDYEKLGFPGAR, peptide start residue: 241) (UniProt Q9HBL8) | 0.319
10 | SCPEP1 (peptide sequence: MAAGIGLELYK, peptide start residue: 172) (UniProt Q9HB40) | 0.267
11 | TAF9B (peptide sequence: DALVMAQILK, peptide start residue: 15) (UniProt Q9HBM6) | -0.0841

Fetched one by one from above, two records:
Row | Target | log2 fold change
3 | TRIOBP (peptide sequence: LSEEIDQLR, peptide start residue: 2251) (UniProt Q9H2D6) | 0.212
1 | VPS16 (peptide sequence: DLYNQDDNHQELGSFHIR, peptide start residue: 618) (UniProt Q9H269) | 0.426
